Test results taken from patent publication US20180298024A1, “CORTISTATIN ANALOGS AND USES THEREOF” (President and Fellows of Harvard College, priority 2015, published 2018).
Some results were stated once for a whole list of compounds, not compound by compound.

Assay: Tolerability study of Compound A and Compound D (body weight)
Type: in vivo, female NSG mice
Description: Twenty-five female NSG mice were randomly assigned to various treatment groups as described in Table 11. All mice were treated for 7 days unless as indicated below.
On study days zero to six (seven doses), Compound A was administered via oral gavage in a volume of 10 mL/kg and Compound D was administered via intravenous injection into the lateral tail vein in a volume of 10 mL/kg. Body weights were recorded daily for fifteen days (days zero to fourteen) and animal health was assessed daily.
Mice were monitored clinically for signs of morbidity and for body weights daily. Mice showing signs of morbidity were euthanized as per study guidelines.

[1] = 10 mg/kg QD x 7 (Compound A PO, Compound D IV), 1 of 2 mice, by day 5 of dosing
[2] = doses at or below 3 mg/kg QD x 7 (Compound A PO, Compound D IV)

| SMILES | body weight loss [1] [%] | body weight loss [2] [%] |
| --- | --- | --- |
| C[C@]12CC=C3C=C4CC[C@@H](O)C[C@]45CC[C@]3(O5)[C@@H]1CC[C@@H]2c1ccc2ccncc2c1 [Compound A, (3S,3aR,9R,10aR,12aS,12bR)-3-(isoquinolin-7-yl)-3a-methyl-1,2,3,3a,4,7,8,9,10,11,12,12b-dodecahydro-10a,12a-epoxybenzo[4,5]cyclohepta[1,2-e]inden-9-ol] | > 15 | < 6 |
| C[C@]12CC=C3C=C4CC[C@@H](N5C[C@H](O)[C@@H](O)C5)C[C@]45CC[C@]3(O5)[C@@H]1CC[C@@H]2c1ccc2ccncc2c1 [Compound D] | > 15 | < 6 |
